Library compounds against nucleic acid targets

Source: the ROBIN nucleic acid binder screens (doi:10.1002/anie.202211358).

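Compounds were printed on reactive glass slides in duplicate spots, a dye-labelled oligonucleotide was laid over them, and the fluorescence left after washing was read. The data file lists only calls. An earlier report of the laboratory on the PreQ1, TPP and SAM-II riboswitches (doi:10.1038/s41467-019-09493-3) used 1 µM RNA for 2 h and required a mean Z-score above 3 (spot signal-to-noise against the whole library), a score well above that on a control array, and duplicate spots agreeing (coefficient of variation under 100); it then also set aside compounds that hit other targets, which this list keeps. The cut-offs behind this list may differ. A missing hit is not proof of no binding, and a hit is not a measured affinity.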
Key: Y = hit, N = tested without a hit.
This is an unselected part of the compounds tested.
A dash means that no call is listed here.

Targets, with sequences 5′ to 3′:
T1: SAM-II riboswitch RNA pseudoknot, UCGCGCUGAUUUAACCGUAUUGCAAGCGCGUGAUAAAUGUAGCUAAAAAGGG. Hit rate about 1% of about 21,000 compounds.
T2: PreQ1 riboswitch RNA pseudoknot, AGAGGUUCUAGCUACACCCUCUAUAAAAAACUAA. From B. subtilis. Hit rate about 0.7% of about 24,000 compounds.
T3: TPP riboswitch RNA three-way junction, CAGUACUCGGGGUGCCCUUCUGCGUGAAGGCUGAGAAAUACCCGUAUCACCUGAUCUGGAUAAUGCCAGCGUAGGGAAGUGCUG. Hit rate about 0.7% of about 24,000 compounds.

| # | Compound | T1 | T2 | T3 |
|---|---|---|---|---|
| 1 | `CCOC(=O)c1cnc2c(OC)cccc2c1Nc1cc(Cl)ccc1OC` | N | N | N |
| 2 | `O=C(NC[C@H]1CNC[C@@H]1CO)c1ccccc1Cc1ccc(Cl)cc1` | N | N | N |
| 3 | `COC(=O)C[C@](O)(CCCC(C)(C)O)C(=O)O[C@@H]1C(OC)=C[C@]23CCCN2CCc2cc4c(cc2[C@H]13)OCO4` | N | N | N |
| 4 | `CC(C)c1ccc(-c2c(C#N)c(N)nc(SC3CCCCC3=O)c2C#N)cc1` (centres undefined) | N | N | N |
| 5 | `Cc1ccc([C@H]2CN(C3CCCCC3)C[C@@H]2N)o1` | N | N | N |
| 6 | `COc1ccccc1CNc1c(-c2ccc(C(C)C)cc2)c(=O)c1=O` | - | N | N |
| 7 | `CCc1cnc(N2CCC3(CC2)CC(O)CO3)nc1` (centres undefined) | N | N | N |
| 8 | `Cn1c(C2=C(N)N(c3ccccc3F)CC2=O)nc2ccccc21` | - | N | N |
| 9 | `Cc1ccccc1Cn1c(C(=O)O)c(CNCc2ccccn2)c2ccccc21` | - | N | N |
| 10 | `Cc1nc(-c2cc3cccc(C)c3nc2NCc2ccccc2)no1` | - | N | N |
| 11 | `CCc1nc(C)ccc1OCC(=O)N1Cc2ccccc2C(O)C1` (centres undefined) | N | N | N |
| 12 | `c1cn(Cc2cnc3c(c2)CCC3)c(-c2cc3n(n2)CCNC3)n1` | N | N | N |
| 13 | `Cc1ccc2c(c1)c(-c1ccccc1)c(-c1ccccc1)n2CC(O)CN1C(=O)c2ccccc2S1(=O)=O` (centres undefined) | N | N | N |
| 14 | `Nc1nc2n(c1C(=O)c1ccc(F)cc1)CCCC2` | N | N | N |
| 15 | `CNc1nc(N2CCOCC2)nc(-n2cnc(SCc3ccccc3)n2)n1` | - | N | N |
| 16 | `CC(C)n1cc(C(=O)N2C[C@@H]3CCCN[C@@H]3C2)cn1` | N | N | N |
| 17 | `Cc1sc(N)nc1-c1ccc(Cl)cc1` | N | N | N |
| 18 | `Cn1c(C2CCN(CC3(O)CCNC3)CC2)nc2ccccc21` (centres undefined) | N | N | N |
| 19 | `CC(=O)[C@H]1CC[C@H]2[C@@H]3CC=C4C[C@@H](O)CC[C@]4(C)[C@@H]3CC[C@]12C` | N | N | N |
| 20 | `CN1CCN(c2nccc(N3CCC(O)CC3)n2)CC1C(=O)O` (centres undefined) | N | N | N |
| 21 | `Nc1c(-c2nc3ccccc3s2)nnn1-c1ccccc1` | - | Y | Y |
| 22 | `COc1ccc(CN2C(=O)C(CCO)Oc3ccccc32)cc1` (centres undefined) | N | N | N |
| 23 | `OCC1CN(CC=Cc2ccccc2)CCC12CCN(Cc1ncc[nH]1)CC2` (centres undefined) | N | N | N |
| 24 | `Cc1ccc(OCCCCn2c(CO)nc3ccccc32)cc1C` | N | N | N |
| 25 | `Cc1cc(NC(C)C)n2nc(-c3ccc(C(C)(C)C)cc3)nc2n1` | - | N | N |
| 26 | `CCCCNc1cc(C)nc2c(C)c(-c3ccc(C)cc3)nn12` | - | N | N |
| 27 | `N[C@H]1CC[C@@H](n2cc(C(=O)N3CCC(Cc4ccccc4)C3)nn2)CC1` (some centres undefined) | N | N | N |
| 28 | `CC1(C)NC(=O)N(CC(O)COc2ccc(F)cc2)C1=O` (centres undefined) | N | N | N |
| 29 | `C=C(C)CCC(C)NCc1n[nH]c2c1CCCCC2` (centres undefined) | N | N | N |
| 30 | `CN(C)CCCNCC1CCOC(C)(C)C1` (centres undefined) | - | N | N |
| 31 | `CCOC(=O)c1cnc2ccccc2c1Nc1ccc(N2CCOCC2)cc1` | N | N | N |
| 32 | `CC(C)c1[nH]n(-c2c(Cl)cccc2Cl)c2nc(Cc3ccc(OCCO)cc3)nc(=O)c1-2` | N | N | N |
| 33 | `COCc1n[nH]c(N)n1` | N | N | N |
| 34 | `Cc1ccc(Nc2nc(C)cc(C)n2)c(Br)c1` | N | N | N |
| 35 | `Cc1cc(C)n2c(Nc3ccc4c(c3)OCCO4)c(-c3ccc(C)s3)nc2n1` | N | N | N |
| 36 | `CCc1cc(Nc2ccc(C)c(C)c2)n2ncnc2n1` | N | N | N |
| 37 | `CCN(CC)Cc1ccc2cc(COC(=O)Nc3ccc(C(=O)NO)cc3)ccc2c1.Cl.O` | N | N | N |
| 38 | `Cc1cc(Cl)ccc1OCCN1CCN(C(=O)C2CCNC2)CC1` (centres undefined) | N | N | N |
| 39 | `CCOc1cc(C2C(C#N)=C(N)Oc3cc(O)ccc32)ccc1OCC(C)C` (centres undefined) | N | N | N |
| 40 | `O=C(OCCOCCNC1=NS(=O)(=O)c2ccccc21)c1ccncc1` | N | N | N |
| 41 | `Cc1nnc2c(N3CCN(CCO)CC3)nc3ccccc3n12` | N | N | N |
| 42 | `CCOc1ccc(NC(=O)c2sc3nc(C)cc(COC)c3c2N)cc1` | N | N | N |
| 43 | `Nc1nonc1C(=O)OCC(=O)c1ccc(Cl)cc1` | N | N | N |
| 44 | `OC[C@@H]1C[C@H](CN2CCOCC2)CN(Cc2cccc(C(F)(F)F)c2)C1` | N | N | N |

Some entries from above, unchanged:

| Compound | T1 | T2 | T3 |
|---|---|---|---|
| `CN1CCN(c2nccc(N3CCC(O)CC3)n2)CC1C(=O)O` (centres undefined) | N | N | N |
| `COCc1n[nH]c(N)n1` | N | N | N |
| `Cc1ccc2c(c1)c(-c1ccccc1)c(-c1ccccc1)n2CC(O)CN1C(=O)c2ccccc2S1(=O)=O` (centres undefined) | N | N | N |
| `Cc1ccc(OCCCCn2c(CO)nc3ccccc32)cc1C` | N | N | N |
| `OC[C@@H]1C[C@H](CN2CCOCC2)CN(Cc2cccc(C(F)(F)F)c2)C1` | N | N | N |